Reference: PubChem BioAssay AID602196 (INSERM, 2012)

Assay: 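Knock-downs that protect lung cancer cells from cisplatin or sensitise them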
Cell system: human A549 lung cancer cells
Reagent: siRNA pair against human genes
Time to read-out: 48 h transfection before cisplatin; time from cisplatin to read-out not stated
Treatment: cisplatin at a dose killing half of control-siRNA cells; exact dose and duration not given
Measured: 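Shift in cisplatin death relative to control siRNA, from -50 (all cells die) to +50 (no cells die); siRNAs harmful on their own scored 0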
Scale: two-siRNA summed score (-2 to +2): higher = both siRNAs protect from cisplatin killing; -2 means both sensitise; mean protection from cisplatin (shift in death) and protection from cisplatin (shift in death), siRNA C and protection from cisplatin (shift in death), siRNA D: higher = protection from cisplatin killing
Hit rule: 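siRNAs harmful alone (LDH or WST-1) get 0; others get +1 for less and -1 for more cisplatin killing; genes are active when the two siRNAs give the same sign, summing to ±2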
Calls: active = both siRNAs shift cisplatin killing the same way; inactive = no consistent shift, or siRNA harmful alone
The deposit covers about 23,000 reagents; below is a part drawn at random. Of all reagents, 455 (2%) were called active. 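Active includes both protection and sensitisation; some change values fall well beyond the stated -50 to +50 range.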 Unmarked entries are inactive. The numbers tell different reagents against one gene apart. Not given: the amount of reagent.

| gene | reagent no. | two-siRNA summed score (-2 to +2) | mean protection from cisplatin (shift in death) (%) | protection from cisplatin (shift in death), siRNA C (%) | protection from cisplatin (shift in death), siRNA D (%) |
| --- | --- | --- | --- | --- | --- |
| LOC400785 | 1 | 0 | 0.6 | 5.8 | -4.6 |
| ONECUT1 | 1 | 0 | -1.2 | -2.1 | -0.3 |
| CD52 | 1 | 0 | 16.9 | 9.3 | 24.5 |
| AQP8 | 1 | 1 | 14.2 | 21.4 | 7 |
| POGZ | 1 | 0 | 10.6 | 5 | 16.1 |
| AKAP14 | 1 | 1 | 10.3 | 22.3 | -1.6 |
| RPL18A | 1 | 0 | 24.7 | 18.9 | 30.4 |
| RIMS3 | 1 | 0 | -0.5 | -5.3 | 4.4 |
| NDUFC1 | 1 | -1 | -13 | 3.8 | -29.9 |
| SOWAHC | 1 | 0 | 2.4 | -2.3 | 7 |
| RNF151 | 1 | -1 | -6.9 | 31.7 | -45.4 |
| NIPSNAP1 | 1 | -1 | -6.4 | 6.8 | -19.7 |
| ITGAX | 1 | -1 | -8.2 | 14.2 | -30.7 |
| FAM13A | 1 | 1 | 11.3 | 4.1 | 18.4 |

Reprinted from above (3 entries):
| gene | reagent no. | two-siRNA summed score (-2 to +2) | mean protection from cisplatin (shift in death) (%) | protection from cisplatin (shift in death), siRNA C (%) | protection from cisplatin (shift in death), siRNA D (%) |
| --- | --- | --- | --- | --- | --- |
| RNF151 | 1 | -1 | -6.9 | 31.7 | -45.4 |
| NIPSNAP1 | 1 | -1 | -6.4 | 6.8 | -19.7 |
| ITGAX | 1 | -1 | -8.2 | 14.2 | -30.7 |

Further results:
| gene | reagent no. | two-siRNA summed score (-2 to +2) | mean protection from cisplatin (shift in death) (%) | protection from cisplatin (shift in death), siRNA C (%) | protection from cisplatin (shift in death), siRNA D (%) |
| --- | --- | --- | --- | --- | --- |
| TAOK2 | 1 | 1 | 3.4 | -7.3 | 14.2 |
| TAOK2 | 2 | 1 | 13.9 | 16.9 | 10.9 |
| LOC391833 | 1 | 0 | -3.6 | -7.4 | 0.3 |
| TIAM1-AS1 | 1 | 0 | 9.2 | 10.8 | 7.6 |
| MIF4GD | 1 | 1 | 11.5 | 15.4 | 7.7 |
| LAMC1 | 1 | -1 | -12.2 | -7 | -17.4 |
| GSC2 | 1 | 1 | 11.9 | 27 | -3.1 |
| ACSS3 | 1 | 0 | 0 | -0.1 | 0.1 |
| NFKBIL1 | 1 | 1 | 19.9 | 19.3 | 20.5 |
